# Assay results: PMC9785441, “A Broad Spectrum Antiparasitic Activity of Organotin (IV) Derivatives and Its Untargeted Proteomic Profiling Using Leishmania donovani” (Pathogens, 2022)
# Test system: L. donovani-infected B10R cells
# Test: Untargeted proteomics of L. donovani-infected B10R cells treated and untreated with MS26Et3
# Type: cell-based, mouse / Leishmania donovani
# Description: B10R culture cells (infected or uninfected with Leishmanaia donovani) were collected and washed twice in cold PBS. The cell pellets (~10^6 cells/pellet) were snap-frozen and stored at −80 °C. To extract the proteins, pellets were thawed, and the cells were resuspended in 200 µL buffer containing 6 M urea, 7% SDS, 50 mM TEAB, protease inhibitor cocktail (Roche, cat. no. A32963), phosphatase inhibitor (Roche, cat. no. A32957), with pH adjusted to 8.1 with phosphoric acid. The cells were then lysed using a sonicating probe 200 µL. The samples were reduced in 500 mM DTT at 47 °C for 30 min and alkylated in 500 mM IAA in the absence of light, at room temperature for 45 min, followed by quenching in 500 mM DTT for 5 min. The samples were then acidified with 12% phosphoric acid and mixed in a 7:1 ratio with binding buffer containing 90% methanol, 50 mM TEAB, pH 7.1, adjusted with phosphoric acid and loaded on to S-Trap columns (Protifi). […] The concentration of desalted peptides was determined and 50 µg aliquots of each sample were dried in a speed vacuum concentrator. […]
# Basic pH reverse-phase LC and data acquisition through LC–MS2/MS3 were performed as previously described. […] Fractions were then analyzed using tandem mass spectrometry (MS2/MS3) on an Orbitrap Fusion mass spectrometer (ThermoFisher, Waltham, MA, USA) with an in-line EASY-nLC 1000 instrument (ThermoFisher, Waltham, MA, USA). […]
smiles,measurement,setting,value
C[CH2][Sn]([CH2]C)([CH2]C)[O]C(=O)CCC(=O)Nc1ccc(OC)cc1 [MS26Et3],"L. donovani protein Rab7 (Uniprot B1NI99), change in abundance","LD proteins detected in L. donovani-infected B10R cells, treated vs untreated with MS26Et3, sheet ""LD Proteins Detected""",Rab7 Only Significant Changed….
same,number of host proteins decreased in abundance,infected B10R cells exposed to compound vs not exposed,238
